# From PubChem BioAssay AID743245 (National Center for Advancing Translational Sciences (NCATS), 2014)
# Chains of the proteins cited; added tags and fusions are not shown.
# UniProt P80244, whole entry, looked up: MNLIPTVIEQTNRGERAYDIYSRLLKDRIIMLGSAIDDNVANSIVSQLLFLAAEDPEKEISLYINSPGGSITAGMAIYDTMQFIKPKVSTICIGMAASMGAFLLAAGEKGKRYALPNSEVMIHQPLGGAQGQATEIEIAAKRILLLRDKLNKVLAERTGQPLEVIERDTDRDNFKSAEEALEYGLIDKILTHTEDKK
# The inconclusive results got no clear call from the source; some entries with a clear call stand among them for comparison. A potency beside an inconclusive call is a rough fit, not a confirmed value. Calls of active or inactive are those of the source. The call rests on the fitted dose curve; in most records, active means well fitted inhibition curve with a large enough effect; inconclusive means small, poorly fitted or top-dose-only effect; inactive means flat fitted curve, though single readings scatter.
# Molecular target: ATP-dependent Clp protease proteolytic subunit (Bacillus subtilis (strain 168)) (UniProt P80244)
# Test: qHTS Assay for Activators of ClpP: Hit Validation of Inhibitors; further: nearly all actives have a fitted effect of over 70% in size
# Conditions: purified B. subtilis ClpP, FRET-FV substrate cleavage, 20 min; activity change, negative = inhibition: at 57.5 µM (top of the series)
# Method in brief: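 Purified B. subtilis ClpP (10 microg/mL final) was mixed with compound, then 3 microM FRET-FV decapeptide added in 100 mM Tris/HCl pH8, 100 mM KCl, 0.05% BSA, 2.5% glycerol, 0.01% Tween-20. Fluorescence (ex 320/em 430nm) read at 0 and 20 min, room temperature.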
# On the % scale 0 is the no-effect control and ±100 the full control effect; potency means the concentration at half of the fitted maximal effect.
Structure (SMILES),Potency,"activity change, negative = inhibition"
COc1ccc(C(=O)Nc2ccccc2-c2nnn(CC(=O)NCc3ccco3)n2)cc1,"inconclusive: 24.3 µM [inhibitor, partial curve]",
O=C(Nc1cccc(Cl)c1Cl)c1cc(S(=O)(=O)NCc2ccc3c(c2)OCO3)ccc1F,"inconclusive: 24.3 µM [inhibitor, partial curve]",
CCCCCn1cc2c(c1-c1ccc(Cl)cc1)c(=O)n(C)c(=O)n2C,"inconclusive: 21.7 µM [inhibitor, partial curve]",
COc1cc2c(cc1NC(=O)CN1CCN(S(=O)(=O)c3ccccc3F)CC1)oc1ccccc12,"inconclusive: 38.5 µM [inhibitor, single point]",
COc1ccc(NCc2cc3cc4c(cc3n(CC(=O)Nc3ccc(C)c(C)c3)c2=O)OCO4)cc1,"inconclusive: 6.85 µM [inhibitor, partial curve]",
COc1ccc(-c2ccc(-c3nnc(Cc4ccc(OC)c(OC)c4)o3)cc2)cc1,"inconclusive: 6.11 µM [inhibitor, full curve]",
Cc1ccccc1NC(=O)c1cc2sccc2n1Cc1ccc(F)cc1,"inconclusive: 38.5 µM [inhibitor, single point]",
COc1ccc(-c2nc3ccccc3s2)cc1NC(=O)c1cccc(F)c1,"inconclusive: 43.2 µM [inhibitor, single point]",
Cc1ccc(-c2cc(C(=O)NCc3ccccc3Cl)c3ccccc3n2)cc1C,active: 27.3 µM,
Cc1cc(-c2ccccc2)c2nncn2n1,active: 21.7 µM,
COc1cc2ccccc2cc1C(=O)NCC(c1cccs1)N(C)C (stereo not given),"inconclusive: 24.3 µM [inhibitor, partial curve]",
CC(=O)Nc1ccc(S(=O)(=O)Nc2nc3ccccc3nc2Nc2ccc3ccccc3c2)cc1,"inconclusive: 13.7 µM [inhibitor, partial curve]",
Cc1ccc(S(=O)(=O)N(C)C)cc1NC(=O)COC(=O)COc1ccc2c(C)cc(=O)oc2c1,,inactive: -24%
CC1CCN(S(=O)(=O)c2ccc3c(c2)CCN3C(=O)Nc2cccc(Br)c2)CC1,"inconclusive: 30.6 µM [inhibitor, single point]",
COc1ccc(NC(=O)Cn2c(=O)c3cccn3c3ccccc32)cc1,,inactive: -17.6%
CNC(=O)c1ccsc1NC(=O)c1sc2ccccc2c1Cl,"inconclusive: 24.3 µM [inhibitor, partial curve]",
COc1ccc(NC(=O)c2ccco2)cc1NC(=O)c1cc2ccccc2o1,active: 19.3 µM,
O=C(O)c1ccccc1NC(c1ccccc1)c1ccc2cccnc2c1O (stereo not given),"inconclusive: 27.3 µM [inhibitor, partial curve]",
COc1ccc(C#Cc2c(-c3ccsc3)oc3ccc(-c4cc(OC)c(OC)c(OC)c4)cc23)cc1,"inconclusive: 21.7 µM [inhibitor, partial curve]",
O=c1oc2ccccc2cc1-c1nc(-c2cccc(Cl)c2)cs1,"inconclusive: 24.3 µM [inhibitor, partial curve]",

Structure (SMILES),Potency,"activity change, negative = inhibition"
COc1ccc(C(=O)n2cc(C(=O)c3cc(C)ccc3O)cn2)cc1OC,,inactive: 5.99%
O=C(NCCc1ccccc1)c1ccc(Nc2nc3ccccc3n3nnnc23)cc1,"inconclusive: 9.68 µM [inhibitor, full curve]",
Cc1c(C(=O)N2CCOCC2)sc2ncn(CC(=O)N3CCC(C)CC3)c(=O)c12,,inactive: -0.766%
O=C(Nc1ccc2oc(-c3ccc4ccccc4c3)nc2c1)c1cccs1,active: 10.9 µM,
Cc1ccc(C(=O)Nc2cccc(-c3nc4ccccc4o3)c2)c(Cl)c1,"inconclusive: 21.7 µM [inhibitor, partial curve]",
COCCCNC(=O)c1c(N)n(-c2cccc(S(N)(=O)=O)c2)c2nc3ccccc3nc12,"inconclusive: 43.2 µM [inhibitor, single point]",
Cc1cc(C)n2nc(-c3sccc3-n3c(C)ccc3C)cc2n1,"inconclusive: 21.7 µM [inhibitor, partial curve]",
Cc1ccc2oc(-c3ccc(NC(=O)CC(C)C)cc3)nc2c1,"inconclusive: 4.32 µM [inhibitor, partial curve, poor fit]",
CCCNC(=O)c1ccc(-c2nc3ccccc3s2)s1,active: 24.3 µM,
Cc1ccc(Nc2c(-c3ccc(Br)o3)nc3ccccn23)cc1,"inconclusive: 21.7 µM [inhibitor, partial curve]",
COc1ccc(-c2oc3ncn4nc(COc5ccc(Cl)cc5)nc4c3c2-c2ccc(OC)cc2)cc1,,inconclusive: -40% [inhibitor]
Cc1ccccc1C(=O)Nc1cccc(NC(=O)c2ccc(-c3ccc(Br)cc3)o2)c1,"inconclusive: 34.3 µM [inhibitor, single point]",
Clc1ccc2nc3ccccn3c2c1,"inconclusive: 2.73 µM [inhibitor, full curve]",
COc1ccc2nc(NC(=O)c3ccc(-n4nc(C)cc4C)cc3)sc2c1,active: 27.3 µM,
Cc1ccc(C)c2[nH]c(=O)c(CN(CCCN(C)C)C(=O)NCc3ccccc3)cc12,"inconclusive: 24.3 µM [inhibitor, single point]",
CCCc1cc(=O)n2c(nc3ccccc32)[nH]1,active: 13.7 µM,
Cc1cccc(CC(=O)Nc2ccc(C(=O)N3CCCCC3)cc2)c1,,inactive: -0.24%
CCOC(=O)c1oc2ccccc2c1NC(=O)COc1cccc(OC)c1,active: 19.3 µM,
CCOC(=O)C1CCCN(c2ncnc3c2oc2ccccc23)C1 (stereo not given),,inactive: -2.09%
O=C(NCc1cccc(F)c1)c1ccc(NC(=O)c2nsc3ccccc23)cc1,"inconclusive: 27.3 µM [inhibitor, partial curve]",

# Copied from the list.
# Cc1cc(C)n2nc(-c3sccc3-n3c(C)ccc3C)cc2n1 – Potency: inconclusive: 21.7 µM [inhibitor, partial curve]
# Cc1ccc(C)c2[nH]c(=O)c(CN(CCCN(C)C)C(=O)NCc3ccccc3)cc12 – Potency: inconclusive: 24.3 µM [inhibitor, single point]
